# Measurements as given in US20070148663A1.
# Protein sequences, listed by entry. Tags and fused reporters are not part of them. Residues count along the entry.
# UniProt P25054, residues 2674-2843: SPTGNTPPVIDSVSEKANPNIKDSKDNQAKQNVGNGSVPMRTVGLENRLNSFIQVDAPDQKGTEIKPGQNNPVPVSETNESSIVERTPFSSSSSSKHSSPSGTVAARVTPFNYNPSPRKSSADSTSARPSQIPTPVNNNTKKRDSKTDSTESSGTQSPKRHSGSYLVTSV
# These are yes or no findings as the source states them, for the method shown. In cells and extracts the contact can be indirect. Some binding calls cover weakened binding; strength is not graded here. Sequences can lack the tags named with a protein.
# B1: EB1-C-GFP (wild type; mouse EB1 amino acids 165-268 fused to GFP) (protein, UniProt Q61166 165-268, looked up, not shown: large carriers)
# chain: ATQRTTAAPKAGPGMVRKNPGVGNGDDEAAELMQQVKVLKLTVEDLEKERDFYFGKLRNIELICQENEGENDPVLQRIVDILYATDEGFVIPDEGGPQEEQEEY
# Target: GST-APC-C1 (amino acids 2674-2843) (UniProt P25054)
# Assay: GST pull-down from COS-7 lysates, anti-GFP western blot
binder,measurement,value
B1,binding,binds
